Test results published in patent US10253087B2, “CCR2 antagonist peptides” (UNIVERSITE PIERRE ET MARIE CURIE (Paris 6), priority 2011, dated 2019).
Entries after “also recorded” stand apart in the source; their conditions may differ. Part of at least one peptide drawing is inferred or uncertain, most often the ends. Non-standard residues stand in square brackets, D forms with d. Residues, ends and D or L forms follow the SMILES beside them.

Chains of the proteins cited; added tags and fusions are not shown. Lines headed by an entry give the natural chain unless they say otherwise; changes in a name come on top.
UniProt P41597: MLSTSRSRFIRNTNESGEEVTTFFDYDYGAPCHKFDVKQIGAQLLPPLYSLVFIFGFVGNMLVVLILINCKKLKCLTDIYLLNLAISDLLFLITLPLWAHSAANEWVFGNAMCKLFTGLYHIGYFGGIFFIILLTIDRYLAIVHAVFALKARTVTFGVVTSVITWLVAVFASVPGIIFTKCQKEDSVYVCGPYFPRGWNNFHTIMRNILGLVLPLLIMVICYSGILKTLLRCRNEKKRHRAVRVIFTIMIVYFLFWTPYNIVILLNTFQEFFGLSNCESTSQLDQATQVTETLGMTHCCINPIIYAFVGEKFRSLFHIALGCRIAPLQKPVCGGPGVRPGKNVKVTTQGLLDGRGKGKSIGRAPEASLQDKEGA
UniProt P51681, whole entry: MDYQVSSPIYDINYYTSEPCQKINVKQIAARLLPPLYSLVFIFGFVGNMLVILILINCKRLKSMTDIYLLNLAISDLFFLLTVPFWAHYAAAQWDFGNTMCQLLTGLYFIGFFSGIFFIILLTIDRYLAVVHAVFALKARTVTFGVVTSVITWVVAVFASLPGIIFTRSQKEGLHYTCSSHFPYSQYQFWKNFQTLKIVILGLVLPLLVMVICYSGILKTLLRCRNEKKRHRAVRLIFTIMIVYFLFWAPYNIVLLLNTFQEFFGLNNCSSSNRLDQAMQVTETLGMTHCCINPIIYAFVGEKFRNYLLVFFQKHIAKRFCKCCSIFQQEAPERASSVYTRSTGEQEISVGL

Key:
mouse monocytes = test: Migration assay, mouse monocytes / leukocytes (MBMC); type: cell-based
Experimental: (§1) Migration assays were performed in 24-transwell inserts (Corning Costar Avon, France) with 8 μm polycarbonate filter for HEK or CHO cells and 5 μm for MBMC. […] The bottom of each well was filled with 600 μL pre-warmed chemotaxis buffer at indicated chemokine concentration. The plates were then incubated for 4 hours at 37° C. in a 5% CO2 atmosphere. […] Before counting the cells by flow cytometry, mouse leukocytes were immunophenotyped with a mix of fluorescent antibodies (anti-mouse Ly6G-PE, anti-mouse NK1.1-PE, anti-mouse […], anti-mouse 7/4-FITC, BD Biosciences) and HEK expressing chemokine receptors with appropriate fluorescent anti-human chemokine receptor. Data were analysed with FlowJo software and results are expressed as a number of cells migrating in the presence or in the absence of chemoattractant. Experiments were run in triplicate, and results are representative of at least three independent experiments.

HEK cells = test: Calcium flux assay, ATP-induced, HEK cells; type: cell-based, human
CCR2 [1] = target: T1, CCR2 (Homo sapiens, UniProt P41597); test: Calcium flux assay, CCL2-induced calcium release on HEK-CCR2; type: cell-based
T1 construct: expressed in transfected cells
Experimental: Cytosolic-free calcium assay was measured by fluorescent detection with the HitHunter™ Calcium No WashPLUS (Ca NWPLUS) assay kit (DiscoveRex, #90-0091). Briefly, HEK or CHO expressing the chemokine receptor of interest (5.104) were plated overnight at 37° C., 5% CO2 before pre-loading with a calcium sensitive dye (Ca NWPLUS working reagent) supplemented with probenecid (Sigma-Aldrich, #P8761) to avoid calcium dye leakage from the cells, for 1 h at 37° C. Cells were then treated with control buffer or peptides at various concentrations and appropriate agonist. Signal was measured as function of time on a fluorescent plate reader equipped with fluidic handling (FlexStation 3, Molecular Devices). Maximum change in fluorescence over baseline (peak signal) was used to determine agonist response, as quantified using SoftMax Pro software. All experiments were run in triplicate, and results are representative of at least three independent experiments.

CCR2 [2] = target: T1, CCR2; test: Radioligand binding assay, I125-CCL2 on HEK-CCR2; conditions: competition binding
Experimental: Binding assay was carried out using I125-CCL2 (specific activity 2200 Ci/mmol; Perkin elmer, inc.). 300.000 HEK cells stably expressing CCR2 and native cells were incubated with I125-CCL2 in the presence or absence of recombinant human CCL2 (10 nM or 100 nM) or ECL1 (C) inverso (1-10-30 μM) in 200 μl buffer (PBS containing 0.5% BSA and 0.01% HEPES). After 1 h incubation at 37° C., cells were washed three times with 1 ml of cold washing solution. Gamma emissions were then counted in the cell pellet with gamma counter. Non-specific binding represented less than 15% of total binding and was subtracted from total binding to define specific I125-CCL2 binding.

CCR5 [3] = target: T2, CCR5 (Homo sapiens, UniProt P51681); test: Migration assay, HEK-CCR5 induced by CCL5; type: cell-based; conditions: CCL5 10 nM
T2 construct: expressed in transfected cells
Experimental: as §1

CCR2 [4] = target: T1, CCR2; test: CCL2-Alexa 647 binding assay on HEK-CCR2; conditions: competition binding
Experimental: Binding was performed with the same cells. 200.000 cells were pre-incubated for 30 minutes at 4° C. in 100 μl buffer (PBS containing 0.5% BSA, 0.2% EDTA and NaN3 0.01%) with recombinant human CCL2 (50 nM, 100 nM and 500 nM), ECL1 (C) inverso (11.3 μM, 28.2 μM and 56.3 μM) or with buffer. After, 50 nM CCL2-alexa 647 (Almac) were add for 30 minutes at 4° C. and washed three times with 1 ml of cold buffer. Cells were incubated with 10 μl anti-human-CCR2 (BD pharmingen) for 30 minutes at 4° C. in the dark and washed three times with 1 ml of cold buffer. Cells and beads were counted on FACSCalibur flow cytometer and data were analysed with FlowJo software.

C57BL/6J mice = test: Experimental autoimmune encephalomyelitis (EAE), model of multiple sclerosis; type: in vivo, mouse
CCR2 [5] = target: T1, CCR2; test: Migration assay, HEK-CCR2 induced by CCL2; type: cell-based; conditions: 15 μM, any of the HEK cells tested
Experimental: as §1

CX3CR1 KO mice = test: Light-induced retinal degeneration model; type: in vivo; conditions: 90 μg/mouse daily during green-light exposure, assessed 10 days after light exposure
C57BL/6 mice = test: Thioglycollate-induced peritoneal inflammation (non infectious peritonitis model); type: in vivo, mouse; conditions: 90 μg i.p. TID, starting 14 h after thioglycollate
CX3CR1 [6] = target: T3, CX3CR1 (Homo sapiens, UniProt P49238); test: Migration assay, HEK-CX3CR1 induced by CX3CL1; type: cell-based
T3 construct: expressed in transfected cells
T3 sequence (P49238 1-355): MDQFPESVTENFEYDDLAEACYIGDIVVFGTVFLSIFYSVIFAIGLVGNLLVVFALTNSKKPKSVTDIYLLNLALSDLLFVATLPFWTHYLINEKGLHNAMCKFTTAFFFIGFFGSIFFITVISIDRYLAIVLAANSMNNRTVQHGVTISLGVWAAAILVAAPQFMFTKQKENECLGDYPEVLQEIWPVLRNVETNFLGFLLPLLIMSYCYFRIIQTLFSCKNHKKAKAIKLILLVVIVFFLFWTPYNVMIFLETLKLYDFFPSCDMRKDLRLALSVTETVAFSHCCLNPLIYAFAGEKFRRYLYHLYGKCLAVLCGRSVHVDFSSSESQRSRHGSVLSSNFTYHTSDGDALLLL
Experimental: as §1

CCR1 [7] = target: T4, CCR1 (Homo sapiens, UniProt P32246); test: Calcium flux assay, CCL5-induced, HEK-CCR1; type: cell-based; conditions: CCL5 25 nM
T4 construct: expressed in transfected cells
T4 sequence (P32246 1-355): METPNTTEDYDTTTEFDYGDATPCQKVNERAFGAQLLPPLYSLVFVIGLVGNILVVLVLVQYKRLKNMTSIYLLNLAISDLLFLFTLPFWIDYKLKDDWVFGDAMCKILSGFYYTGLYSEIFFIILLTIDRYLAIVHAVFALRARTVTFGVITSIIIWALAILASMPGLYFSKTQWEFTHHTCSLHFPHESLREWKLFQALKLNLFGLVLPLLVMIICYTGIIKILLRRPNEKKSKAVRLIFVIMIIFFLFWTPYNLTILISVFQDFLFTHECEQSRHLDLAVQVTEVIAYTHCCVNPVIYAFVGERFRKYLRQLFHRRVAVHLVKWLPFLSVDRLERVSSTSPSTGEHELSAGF

CCR2 [8] = target: T1, CCR2; test: β-arrestin recruitment assay (PathHunter), CCL2-induced; type: cell-based; conditions: up to 500 μM, HEK-CCR2 and CHO-CCR2
Experimental: Recruitment of β-arrestin in live cells was measured by chemoluminescence detection with the PathHunter™ eXpress β-Arrestin assay kit (DiscoveRex, #93-00446E1). Briefly, 100 μL PathHunter eXpress cells were expressing CCR2 were plated on a 96-well tissue culture treated plate for 48 hours at 37° C., 5% CO2. Cells were first incubated with ECL1 (C) inverso or control peptide and before adding 10 μL of the agonist, CCL2 diluted in OCC medium to achieve the EC80 determined beforehand or with OCC medium alone, for respectively 60 and 90 min at 37° C., 5% CO2. The reaction was stopped by adding 55 μL of the Working Detection Reagent Solution (PathHunter detection reagent) for 90 min at Room temperature. Chemoluminescent signal was read on a luminescent plate reader (TriStar LB 941, Berthold Technologies, Thoiry, France). Assays were run in triplicates.

CCR5 [9] = target: T2, CCR5; test: Calcium flux assay, CCL5-induced, HEK-CCR5; type: cell-based; conditions: CCL5 25 nM
CX3CR1 [10] = target: T3, CX3CR1; test: Calcium flux assay, CX3CL1-induced, HEK-CX3CR1; type: cell-based; conditions: CX3CL1 20 nM
[11] = system: lypophosphatic acid (LPA)-GPCR; test: Calcium flux assay, LPA-induced, HEK cells; type: cell-based, human; conditions: LPA 10 μM
CCR1 [12] = target: T4, CCR1; test: Migration assay, HEK-CCR1 induced by CCL5; type: cell-based; conditions: CCL5 10 nM

**Q.** With CC(C)C[C@@H](N)C(=O)NCC(=O)N[C@@H](C(=O)N[C@H](Cc1ccccc1)C(=O)N[C@H](CC(C)C)C(=O)N[C@H](CCCCN)C(=O)N[C@H](CS)C(=O)O)[C@H](C)O [ECL1 (C) inverso, LGTFLKC] (H-[dL]G[dT][dF][dL][dK][dC]-OH; N-terminus and C-terminus assumed) as the compound, how does the “inhibition of CCL2-mediated chemotaxis of inflammatory monocytes (CD11b+Ly6G-7/4hiCCR2+)” value (mouse monocytes) read?
**A.** The value was “inhibited”.

**Q.** And the “effect on chemotaxis of resident monocytes (CD11b+Ly6G−7/4loCCR2−)” value (mouse monocytes; data not shown)?
**A.** Its value is “did not have any effect”.

**Q.** And the “inhibition of calcium release induced by ATP on HEK cells” value (HEK cells; ATP 10 μM)?
**A.** Its value is “No inhibitory effect”.

**Q.** And the “inhibition of calcium release induced by ATP on HEK cells” value (HEK cells; ATP 30 μM)?
**A.** Its value is “no significant inhibition”.

**Q.** What about the IC50 (CCR2 [1]; CCL2 50 nM, HEK-CCR2, read-out: IC50 for inhibition of calcium release induced by CCL2) of the same compound?
**A.** The IC50 was 750 nM.

**Q.** What about the “induction of calcium response (agonist activity)” value (CCR2 [1]; up to 500 μM, HEK-CCR2 and CHO-CCR2) of the same compound?
**A.** Its value is “could not induce significant calcium response”.

**Q.** And the “displacement of bound [125I]-CCL2 on HEK-CCR2” value (CCR2 [2])?
**A.** Its value is “could not”.

**Q.** And the “inhibition of migration of HEK-CCR5 induced by CCL5” value (CCR5 [3])?
**A.** The value was “did not antagonize”.

**Q.** What about the “inhibition of migration of HEK-CCR5 induced by CCL5” value (CCR5 [3]; listed as ECL1(C) inverso) of the same compound?
**A.** The value was “but not”.

**Q.** And the “displacement of the binding of CCL2-Alexa-647 with HEK-CCR2” value (CCR2 [4])?
**A.** The value was “could not; also recorded: does not displace”.

**Q.** What about the “relapse of EAE” value (C57BL/6J mice; 2 i.p. injections of 90 μg at disease peak (days 12 and 13)) of the same compound?
**A.** The value was “prevents relapses”.

**Q.** And the “severity of clinical symptoms of EAE” value (C57BL/6J mice; 2 i.p. injections of 90 μg in course of disease progression (days 7 and 8))?
**A.** The value was “reduces severity of clinical symptoms”.

**Q.** And the “induction of migration by the peptide itself” value (CCR2 [5])?
**A.** The value was “does not induce the migration”.

**Q.** What about the “accumulation of microglial cells in sub-retinal space” value (CX3CR1 KO mice) of the same compound?
**A.** The value was “reduces the accumulation of microglial cells”.

**Q.** And the “recruitment of all monocyte subsets (7/4hi, 7/4int, 7/4lo)” value (C57BL/6 mice)?
**A.** Its value is “has an inhibitory effect”.

**Q.** What about the “recruitment of neutrophils (CD11b+ Ly6G+)” value (C57BL/6 mice) of the same compound?
**A.** The value was “decreased the recruitment of neutrophils, albeit in a lesser extent; also recorded: but not neutrophils”.

**Q.** What about the “recruitment of peritoneal macrophages (CD11b+ Ly6G− F4/80+)” value (C57BL/6 mice) of the same compound?
**A.** Its value is “strongly inhibited; also recorded: inhibits the recruitment”.

**Q.** What about the “recruitment of peritoneal monocytes (CD11b+ Ly6G− F4/80−)” value (C57BL/6 mice) of the same compound?
**A.** Its value is “strongly inhibited; also recorded: inhibits the recruitment”.

**Q.** And the “inhibition of migration of HEK-CX3CR1 induced by CX3CL1” value (CX3CR1 [6]; CX3CL1 1 nM)?
**A.** The value was “did not antagonize”.

**Q.** And the “inhibition of migration of HEK-CX3CR1 induced by CX3CL1” value (CX3CR1 [6]; CX3CL1 10 nM)?
**A.** The value was “but not”.

**Q.** What about the “inhibition of calcium release induced by CCL5 on HEK-CCR1” value (CCR1 [7]) of the same compound?
**A.** The value was “no significant inhibition; also recorded: No inhibitory effect”.

**Q.** And the “induction of β-arrestin recruitment (agonist activity)” value (CCR2 [8])?
**A.** Its value is “could not induce”.

**Q.** And the “inhibition of calcium release induced by CCL5 on HEK-CCR5” value (CCR5 [9])?
**A.** The value was “no significant inhibition; also recorded: No inhibitory effect”.

**Q.** What about the “inhibition of calcium release induced by CX3CL1 on HEK-CX3CR1” value (CX3CR1 [10]) of the same compound?
**A.** The value was “no significant inhibition; also recorded: No inhibitory effect”.

**Q.** What about the “inhibition of calcium release induced by LPA on HEK cells” value [11] of the same compound?
**A.** The value was “no significant inhibition”.

**Q.** What about the “inhibition of migration of HEK-CCR1 induced by CCL5” value (CCR1 [12]) of the same compound?
**A.** The value was “did not antagonize”.

**Q.** What about the “inhibition of migration of HEK-CCR1 induced by CCL5” value (CCR1 [12]; listed as ECL1(C) inverso) of the same compound?
**A.** The value was “but not”.
